The test system of this test is BDF1 mice, M5076 sarcoma s.c., survival/tumor T/C. Kind of test: NCI In Vivo Anticancer Drug Screen. Data for tumor model Sarcoma M5076 (subcutaneous) in B6D2F1 (BDF1) mice. The method, then:
The antitumor activity of compounds was measured in mice bearing transplantable tumors. Survival or tumor size were measured and the results are expressed as the measurement made in the treated group (T) divided by the measurement made in the vehicle treated control group (C). The tumor model used in this assay is Sarcoma M5076 (subcutaneous) in B6D2F1 (BDF1) mice

The mark [1] stands for this setting: T/C endpoint: median tumor weight (est.), dose: 200.0 mg/kg/injection, schedule: Q01DX009 (ip), vehicle: saline with Tween-80, evaluated on day 20, higher T/C = larger tumour.

The list is a part of this screen's results and no random one: it is rich in T/C values a quarter to a half above the control, in often repeated tests (any T/C) and in doses without a T/C. Other doses and runs of a compound stand elsewhere. T/C: endpoint of the treated group in % of that of the vehicle group. Schedules are NCI's codes, taken here to give the interval after Q, in days (D) or hours (H), and the number of doses after X. Some T/C values carry the count of animals alive at the toxicity check (mostly the fifth day); where none is given, no animal had died by that day. Some entries give survivors of the animals treated and no T/C: the source files T/C as zero there, which appears to mark a toxic dose or a test without result, not a measured value. Some doses without a T/C left all or most animals alive at the check, yet need not have been tolerated: the source hardly ever lists a survival T/C far under the control, and the zero likely stands for such cases as well. Counts of survivors are from the toxicity check (mostly the fifth day) where no day follows; animals may have died later. Some entries hold several experiments; the values are given in rising order. Where survival is the endpoint, this PubChem deposit counts one and a half times the control or more as active, and values a quarter to a half above the control carry no call in these data; other NCI protocols may use other cut-offs.

On to `Nc1nc(N)c2c(ccc3nccc32)[nH]1`, for which the survivor count is 0 of 10 on day 9 (T/C endpoint: median survival time, dose: 50.0 mg/kg/injection, schedule: Q01DX009 (ip), vehicle: saline with Tween-80, higher T/C = longer survival) and 0 of 10 on day 20 (T/C endpoint: median tumor weight (est.), dose: 50.0 mg/kg/injection, schedule: Q01DX009 (ip), vehicle: saline with Tween-80, higher T/C = larger tumour).
Take `O=C1/C(=C/c2cccc([N+](=O)[O-])c2)SC(=S)N1C1CC1`: the T/C under setting [1] is 130 % of control.
Consider `CC(C)CC(NC(=O)C(N)C(C)C)C(=O)NC(CCCCN)C(=O)NC(C(=O)O)C1CC(Cl)=NO1` (configuration not stated), for which the T/C is, setting by setting: (T/C endpoint: median survival time, dose: 12.8 mg/kg/injection, schedule: Q01DX010 (ip), vehicle: saline, higher T/C = longer survival) 125 and 148 % of control; (T/C endpoint: median survival time, dose: 25.6 mg/kg/injection, schedule: Q01DX010 (ip), vehicle: saline, higher T/C = longer survival) 144 % of control. For the same compound, the survivor count (T/C endpoint: median survival time, dose: 51.2 mg/kg/injection, schedule: Q01DX010 (ip), vehicle: saline, higher T/C = longer survival) is recorded as 10 of 10.
For the compound `NCCNCC(O)CO` (configuration not stated), the T/C (T/C endpoint: median tumor weight (est.), dose: 50.0 mg/kg/injection, schedule: Q01DX009 (ip), vehicle: saline, evaluated on day 20, higher T/C = larger tumour) is 144 % of control.
As for `c1cc2n(n1)CCN2`, the T/C by setting is: (T/C endpoint: median tumor weight (est.), dose: 12.5 mg/kg/injection, schedule: Q02DX011 (ip), vehicle: saline, evaluated on day 22, higher T/C = larger tumour) 148 % of control [9 of 10 alive on day 22]; (T/C endpoint: median tumor weight (est.), dose: 25.0 mg/kg/injection, schedule: Q02DX011 (ip), vehicle: saline, evaluated on day 22, higher T/C = larger tumour) 137 % of control [9 of 10 alive on day 22].
Take `O=C(N/N=C\c1cc(Br)cc(Br)c1O)N/N=C/c1cc(Br)cc(Br)c1O`: the survivor count (T/C endpoint: median survival time, dose: 1600.0 mg/kg/injection, schedule: Q04DX003 (ip), vehicle: saline with Tween-80, higher T/C = longer survival) is listed as 5 of 8.
Take `N[C@@H](Cc1ccc(N(CCCl)CCCl)cc1)C(=O)O`: the T/C by setting is: (T/C endpoint: median survival time, dose: 1.5 mg/kg/injection, schedule: Q02DX033 (ip), vehicle: saline, higher T/C = longer survival) 140 % of control; (T/C endpoint: median survival time, dose: 5.4 mg/kg/injection, schedule: Q01DX001 (ip), vehicle: saline, evaluated on day 17, higher T/C = longer survival) 123, 137, 162 % of control; (T/C endpoint: median survival time, dose: 5.4 mg/kg/injection, schedule: Q01DX001 (ip), vehicle: saline, evaluated on day 54, higher T/C = longer survival) 138 % of control; (T/C endpoint: median survival time, dose: 5.4 mg/kg/injection, schedule: Q01DX001 (ip), vehicle: saline, evaluated on day 61, higher T/C = longer survival) 121 % of control; (T/C endpoint: median survival time, dose: 5.4 mg/kg/injection, schedule: Q01DX001 (ip), vehicle: saline, evaluated on day 68, higher T/C = longer survival) 128 % of control; (T/C endpoint: median survival time, dose: 5.4 mg/kg/injection, schedule: Q01DX001 (ip), vehicle: saline, evaluated on day 75, higher T/C = longer survival) 163 % of control. Further, the T/C (T/C endpoint: median survival time, dose: 6.0 mg/kg/injection, schedule: Q04DX006 (ip), vehicle: saline, higher T/C = longer survival) is 138 % of control; the T/C (T/C endpoint: median survival time, dose: 9.0 mg/kg/injection, schedule: Q01DX001 (ip), vehicle: saline, evaluated on day 17, higher T/C = longer survival) is on record as 144, 147, 162 % of control; the T/C (T/C endpoint: median survival time, dose: 9.0 mg/kg/injection, schedule: Q01DX001 (ip), vehicle: saline, evaluated on day 54, higher T/C = longer survival) was 149 % of control; the T/C (T/C endpoint: median survival time, dose: 9.0 mg/kg/injection, schedule: Q01DX001 (ip), vehicle: saline, evaluated on day 61, higher T/C = longer survival) is 136 % of control [9 of 10 alive on day 61]; the T/C (T/C endpoint: median survival time, dose: 9.0 mg/kg/injection, schedule: Q01DX001 (ip), vehicle: saline, evaluated on day 68, higher T/C = longer survival) was 159 % of control; the T/C (T/C endpoint: median survival time, dose: 9.0 mg/kg/injection, schedule: Q01DX001 (ip), vehicle: saline, evaluated on day 75, higher T/C = longer survival) was 161 % of control. Besides, the T/C (T/C endpoint: median survival time, dose: 15.0 mg/kg/injection, schedule: Q01DX001 (ip), vehicle: saline, evaluated on day 17, higher T/C = longer survival) is listed as 133, 162, 197 % of control; the T/C (T/C endpoint: median survival time, dose: 15.0 mg/kg/injection, schedule: Q01DX001 (ip), vehicle: saline, evaluated on day 54, higher T/C = longer survival) was 164 % of control; the T/C (T/C endpoint: median survival time, dose: 15.0 mg/kg/injection, schedule: Q01DX001 (ip), vehicle: saline, evaluated on day 61, higher T/C = longer survival) is 135 % of control; the T/C (T/C endpoint: median survival time, dose: 15.0 mg/kg/injection, schedule: Q01DX001 (ip), vehicle: saline, evaluated on day 68, higher T/C = longer survival) was 157 % of control; the T/C (T/C endpoint: median survival time, dose: 15.0 mg/kg/injection, schedule: Q01DX001 (ip), vehicle: saline, evaluated on day 75, higher T/C = longer survival) is 192 % of control; the T/C (T/C endpoint: median survival time, dose: 25.0 mg/kg/injection, schedule: Q01DX001 (ip), vehicle: saline, evaluated on day 17, higher T/C = longer survival) is 67 [6 of 7 alive], 138, 172 % of control. For the same compound, where the note is “T/C endpoint: median survival time, dose: 25.0 mg/kg/injection, schedule: Q01DX001 (ip), vehicle: saline, evaluated on day 61, higher T/C = longer survival”, the T/C was 138 % of control. In addition, the survivor count (T/C endpoint: median survival time, dose: 25.0 mg/kg/injection, schedule: Q01DX001 (ip), vehicle: saline, higher T/C = longer survival) is recorded as 0 of 8 on day 54, 5 of 10 on day 68, 6 of 10 on day 75.
On to `Nc1ncn(C2OC(CO)C(O)C2O)c(=O)n1` (configuration not stated), for which the survivor count is listed as 6 of 8 (T/C endpoint: median survival time, dose: 2.59 mg/kg/injection, schedule: Q04DX004 (ip), vehicle: saline, higher T/C = longer survival); 6 of 8 (T/C endpoint: median survival time, dose: 4.32 mg/kg/injection, schedule: Q04DX004 (ip), vehicle: saline, higher T/C = longer survival); 6 of 8 (T/C endpoint: median survival time, dose: 7.2 mg/kg/injection, schedule: Q04DX004 (ip), vehicle: saline, higher T/C = longer survival); 10 of 10 (T/C endpoint: median survival time, dose: 12.0 mg/kg/injection, schedule: Q04DX004 (ip), vehicle: saline, higher T/C = longer survival).
Take `COc1cccc2c1C(=O)c1c(O)c3c(c(O)c1C2=O)C[C@@](O)(C(=O)CO)C[C@@H]3OC1CC(N)C(O)C(C)O1` (some centres not stated): the survivor count reads like this: (T/C endpoint: mean tumor weight, dose: 4.0 mg/kg/injection, schedule: Q02DX011 (ip), vehicle: saline, higher T/C = larger tumour) 3 of 10 on day 22; (T/C endpoint: median survival time, dose: 1.3 mg/kg/injection, schedule: Q04DX004 (ip), vehicle: saline, higher T/C = longer survival) 8 of 8; (T/C endpoint: median survival time, dose: 6.0 mg/kg/injection, schedule: Q04DX004 (ip), vehicle: saline, higher T/C = longer survival) 8 of 8; (T/C endpoint: median survival time, dose: 6.7 mg/kg/injection, schedule: Q04DX003 (iv), vehicle: saline, higher T/C = longer survival) 4 of 10 on day 45; (T/C endpoint: median survival time, dose: 10.0 mg/kg/injection, schedule: Q04DX003 (iv), vehicle: saline, higher T/C = longer survival) 2 of 10 on day 45; (T/C endpoint: median survival time, dose: 10.0 mg/kg/injection, schedule: Q04DX004 (ip), vehicle: saline, higher T/C = longer survival) 7 of 8. In addition, the survivor count runs as follows: (T/C endpoint: median survival time, dose: 10.0 mg/kg/injection, schedule: Q04DX004 (iv), vehicle: saline, higher T/C = longer survival) 8 of 8; (T/C endpoint: median tumor weight (est.), dose: 4.0 mg/kg/injection, schedule: Q02DX011 (ip), vehicle: saline, higher T/C = larger tumour) 3 of 10 on day 22. The T/C (T/C endpoint: median survival time, dose: 6.0 mg/kg/injection, schedule: Q04DX004 (iv), vehicle: saline, higher T/C = longer survival) is 138 % of control.
As to `COc1cc(-c2ccc(NC(=O)NC3CC3)c(OC)c2)ccc1NC(=O)NC1CC1`, under setting [1], the T/C was 141 % of control.
Turning to `O=C(O)c1ccc(C(=O)O)c(C(=O)O)c1.[NH-]C1CCCCC1[NH-].[Pt+2]`, the T/C is 136 % of control (T/C endpoint: median survival time, dose: 3.11 mg/kg/injection, schedule: Q04DX005 (ip), vehicle: sodium bicarbonate, higher T/C = longer survival) and 127 % of control (T/C endpoint: median survival time, dose: 5.18 mg/kg/injection, schedule: Q04DX005 (ip), vehicle: sodium bicarbonate, higher T/C = longer survival). Besides, the survivor count reads like this: (T/C endpoint: median survival time, dose: 24.0 mg/kg/injection, schedule: Q04DX005 (ip), vehicle: sodium bicarbonate, higher T/C = longer survival) 10 of 10 on day 9; (T/C endpoint: median survival time, dose: 40.0 mg/kg/injection, schedule: Q04DX005 (ip), vehicle: sodium bicarbonate, higher T/C = longer survival) 10 of 10 on day 9; (T/C endpoint: median tumor weight (est.), dose: 24.0 mg/kg/injection, schedule: Q04DX005 (ip), vehicle: sodium bicarbonate, higher T/C = larger tumour) 2 of 10 on day 22; (T/C endpoint: median tumor weight (est.), dose: 40.0 mg/kg/injection, schedule: Q04DX005 (ip), vehicle: sodium bicarbonate, higher T/C = larger tumour) 0 of 10 on day 22.
With `O=NN(CCCl)C(=O)NC1CCC(=O)NC1=O` (configuration not stated), the survivor count is listed as 10 of 10 (T/C endpoint: median survival time, dose: 16.0 mg/kg/injection, schedule: Q01DX009 (ip), vehicle: saline + alcohol, higher T/C = longer survival) and 0 of 10 on day 20 (T/C endpoint: median tumor weight (est.), dose: 16.0 mg/kg/injection, schedule: Q01DX009 (ip), vehicle: saline + alcohol, higher T/C = larger tumour).
For `Nc1nncs1`, the survivor count runs as follows: (T/C endpoint: mean tumor weight, dose: 150.0 mg/kg/injection, schedule: Q02DX011 (ip), vehicle: acid diluted with saline, higher T/C = larger tumour) 0 of 10 on day 22; (T/C endpoint: median survival time, dose: 100.0 mg/kg/injection, schedule: Q01DX009 (ip), vehicle: saline, higher T/C = longer survival) 9 of 9; (T/C endpoint: median tumor weight (est.), dose: 50.0 mg/kg/injection, schedule: Q01DX009 (ip), vehicle: saline, higher T/C = larger tumour) 6 of 10 on day 17; (T/C endpoint: median tumor weight (est.), dose: 100.0 mg/kg/injection, schedule: Q01DX009 (ip), vehicle: saline, higher T/C = larger tumour) 2 of 9 on day 17; (T/C endpoint: median tumor weight (est.), dose: 150.0 mg/kg/injection, schedule: Q02DX011 (ip), vehicle: acid diluted with saline, higher T/C = larger tumour) 0 of 10 on day 22.

The values are drawn from PubChem BioAssay AID288 (DTP/NCI, 2004).
